Measurements reported in PubChem BioAssay AID504774 (Drosophila RNAi Screening Center, 2011)
In all, the deposit lists about 23,000 reagents; this is a random part of those that have a named target and a result. 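Values are quantile-normalised luminescence on an arbitrary scale; higher means more cells surviving MMS.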 Names joined by + are all predicted targets of the reagent. Not all columns of the deposit are shown.

Test: 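Genes required for cells to withstand methyl methanesulphonate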 (primary screen)
Cell system: Drosophila Kc167 cells
Reagent: long dsRNA against Drosophila genes, about 0.25 µg dsRNA per well
Duration: about 6 days: 3 days knock-down, then 3 days with or without MMS
Challenge: methyl methanesulphonate 0.004% (w/v) for 3 days after knock-down
Detection: 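Viability in wells given MMS, read as ATP luminescence, normalised by quantiles plate by plate and averaged across replicates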
Direction: mean viability with MMS: higher = more surviving cells after MMS

no.	Target gene	dsRNA	mean viability with MMS
1	CG3213 (GeneID 33574)	DRSC00576	3.57e6
2	ND-B8 (GeneID 50178)	DRSC00449	3.52e6
3	COX6AL2 (GeneID 40066)	DRSC10082	3.42e6
4	CG42272 (GeneID 318020)	DRSC08766	3.48e6
5	CG42272 (GeneID 318020)	DRSC22502	2.94e6
6	CG31219 (GeneID 42344)	DRSC15140	3.54e6
7	Spn75F (GeneID 317912)	DRSC09589	3.62e6
8	Vsp37A (GeneID 31006)	DRSC18794	3.56e6
9	CG5861 (GeneID 34965)	DRSC02907	3.35e6
10	Ets98B (GeneID 43334)	DRSC16666	3.99e6
11	CG33110 (GeneID 42659)	DRSC14694	2.93e6
12	CG33110 (GeneID 42659)	DRSC16137	3.45e6
13	CG8833 (GeneID 39535)	DRSC11050	3.41e6
14	CG34260 + cmpy	DRSC11701	3.47e6
15	mRpL43 (GeneID 37750)	DRSC04508	3.70e6
16	mRpL43 (GeneID 37750)	DRSC22571	3.45e6
17	DIP-kappa (GeneID 318958)	DRSC01336	3.31e6
18	DIP-kappa (GeneID 318958)	DRSC01337	3.52e6
19	Atg1 (GeneID 39454)	DRSC09809	3.58e6
20	Atg1 (GeneID 39454)	DRSC09810	3.63e6
21	CG8701 (GeneID 35812)	DRSC07237	3.61e6
22	CG42588 (GeneID 39457)	DRSC09820	3.46e6
23	CG42588 (GeneID 39457)	DRSC22121	3.50e6
24	hoe1 (GeneID 249663)	DRSC00265	3.37e6
25	hoe1 (GeneID 249663)	DRSC00333	3.64e6
26	hoe1 (GeneID 249663)	DRSC00353	3.66e6
27	CG6972 (GeneID 42684)	DRSC16159	3.57e6
28	CheB98a (GeneID 50092)	DRSC14882	3.56e6
29	eff (GeneID 41785)	DRSC16940	3.34e6
30	fid (GeneID 43148)	DRSC14885	3.48e6
31	fid (GeneID 43148)	DRSC16464	3.50e6
32	l(2)41Ab (GeneID 5740691)	DRSC21007	2.38e6

Reprinted from the listing (7 entries):
no.	Target gene	dsRNA	mean viability with MMS
22	CG42588 (GeneID 39457)	DRSC09820	3.46e6
23	CG42588 (GeneID 39457)	DRSC22121	3.50e6
24	hoe1 (GeneID 249663)	DRSC00265	3.37e6
25	hoe1 (GeneID 249663)	DRSC00333	3.64e6
26	hoe1 (GeneID 249663)	DRSC00353	3.66e6
27	CG6972 (GeneID 42684)	DRSC16159	3.57e6
28	CheB98a (GeneID 50092)	DRSC14882	3.56e6

Additional reagents:
no.	Target gene	dsRNA	mean viability with MMS
33	CG8248 (GeneID 35888)	DRSC07124	3.46e6
34	myo (GeneID 43811)	DRSC17174	3.59e6
35	capt (GeneID 45233)	DRSC00676	3.47e6
36	capt (GeneID 45233)	DRSC00806	3.57e6
37	ASPP (GeneID 37422)	DRSC04305	3.00e6
38	ASPP (GeneID 37422)	DRSC23069	3.13e6
39	CG8180 (GeneID 36713)	DRSC07092	3.59e6
40	CG8180 (GeneID 36713)	DRSC07093	3.29e6
41	beat-IIb (GeneID 42082)	DRSC13219	3.31e6
42	beat-IIb (GeneID 42082)	DRSC14816	3.55e6
43	beat-IIb (GeneID 42082)	DRSC15546	3.46e6
44	RNaseP:RNA (GeneID 3772418)	DRSC22967	3.56e6
45	ATPsynF (GeneID 37931)	DRSC04482	3.70e6
46	Dcps (GeneID 40711)	DRSC12299	3.66e6
47	ine (GeneID 33659)	DRSC00822	3.40e6
48	CG13748 (GeneID 35896)	DRSC06419	3.64e6
49	MstProx (GeneID 40890)	DRSC12458	3.45e6
50	MstProx (GeneID 40890)	DRSC12601	3.43e6
51	AGO2 (GeneID 39683)	DRSC09999	3.30e6
52	AGO2 (GeneID 39683)	DRSC10847	3.57e6
53	dj-1beta (GeneID 43652)	DRSC14599	3.56e6
54	BRWD3 (GeneID 42898)	DRSC15369	3.38e6
55	BRWD3 (GeneID 42898)	DRSC16032	3.37e6
56	Sec5 (GeneID 33563)	DRSC00714	3.65e6
57	l(2)27Cb (retired record) (GeneID 48760)	DRSC02758	3.41e6
58	CG34325 (GeneID 32656)	DRSC19802	3.67e6
59	CG34325 (GeneID 32656)	DRSC20200	3.67e6
60	CG31473 (GeneID 318753)	DRSC15443	3.66e6
61	Psf1 (GeneID 38136)	DRSC08638	3.57e6
62	CG13130 (retired record) (GeneID 50439)	DRSC02226	3.59e6
63	CG8252 (GeneID 35884)	DRSC07126	3.64e6
64	Tim9a (GeneID 32294)	DRSC19753	3.54e6
65	SLIRP2 (GeneID 41021)	DRSC16363	3.61e6
66	fog (GeneID 33148)	DRSC20646	3.54e6
67	mRRF1 (GeneID 39067)	DRSC10421	3.48e6
68	CG12912 (GeneID 36075)	DRSC06227	2.57e6
